Laboratory results: PubChem BioAssay AID1053208 (Peter MacCallum Cancer Centre, 2014)

- Assay: 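Synthetic lethal interactions between gene loss and doxorubicin in osteosarcoma cells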 (primary screen)
- Cells: mouse osteosarcoma cells, early-passage culture from an engineered mouse model of fibroblastic bone tumour
- Reagent: siRNA pool against mouse genes, 40 nM
- Duration: about 120 h (48 h before drug, then 72 h with drug)
- Treatment: doxorubicin 100 nM for 72 h, roughly 30-40% inhibitory dose
- Measurement: 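Viability read as ATP luminescence after 72 h of 100 nM doxorubicin or none, duplicate wells averaged, scaled to non-targeting siRNA, then expressed as robust z-scores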
- Scale: viability z-score with doxorubicin: higher = more viable cells under doxorubicin; viability z-score without drug: higher = more viable cells with knock-down alone
- Hit rule: 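Called active if knock-down leaves viability unchanged without drug (z within -2 to 2) but lowers it with doxorubicin (z at or under -2)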
Shown is a random part of about 17,000 reagents. In the full data, 788 (4.7%) got an active call. 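Calls rest on z-score classes alone; an extra cut-off of viability at most 70% of control was not applied to them.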 A reagent listed more than once was tested more than once; the source does not tell the runs apart. Further read-outs or replicates are left out here. Reagent sequences are not shown.

no.	gene symbol	combined z-score class	viability z-score with doxorubicin	viability z-score without drug	activity call
1	Mrpl38	low cell count with doxorubicin only	-3.04	-0.84	active
2	Cry2	no change with or without drug	0.45	0.84	inactive
3	Cby1	no change with or without drug	-0.34	-0.84	inactive
4	Ciz1	no change with or without drug	-0.9	0.34	inactive
5	Ddhd1	no change with or without drug	-1.8	0.34	inactive
6	Dcakd	no change with or without drug	0.45	-0.84	inactive
7	Pigw	high cell count without drug only	1.8	2.19	inactive
8	Klhl6	no change with or without drug	-0.45	0.17	inactive
9	Rab10os	no change with or without drug	-1.35	-1.18	inactive
10	Ctbp2	no change with or without drug	0.9	0.51	inactive
11	Micos13	low cell count without drug only	1.24	-5.56	inactive
12	Grk1	no change with or without drug	1.57	0	inactive
13	Grk1	no change with or without drug	-0.67	-1.52	inactive
14	Mob2	no change with or without drug	0.22	1.52	inactive
15	A630023P12Rik	no change with or without drug	-0.22	-0.84	inactive
16	Plpp3	no change with or without drug	0.22	0.17	inactive
17	Psmd14	no change with or without drug	-0.67	-0.84	inactive
18	Mark1	no change with or without drug	1.57	-0.34	inactive
19	Cdh3	no change with or without drug	1.69	1.18	inactive
20	Apom	no change with or without drug	-1.35	-1.18	inactive
21	Ppp1r3a	high cell count with doxorubicin only	2.25	0.34	inactive
22	Pon3	no change with or without drug	0.9	0.51	inactive
23	Zfp353-ps	no change with or without drug	1.69	-0.17	inactive
24	Cirbp	no change with or without drug	-1.01	0.84	inactive
25	Rassf10	no change with or without drug	0	-1.85	inactive
26	Exoc7	no change with or without drug	-0.22	0.51	inactive
27	D17H6S56E-5	no change with or without drug	-0.67	0.51	inactive
28	Klk10	no change with or without drug	-0.79	0	inactive
29	Bhlhe40	no change with or without drug	1.57	0.17	inactive
30	Metap2	no change with or without drug	-1.12	-0.34	inactive
31	Lysmd3	no change with or without drug	1.35	0.51	inactive
32	Bsx	no change with or without drug	-0.79	-0.17	inactive
33	Rlig1	no change with or without drug	-0.56	1.18	inactive
34	Gsn	no change with or without drug	0.56	-0.67	inactive
35	Tubb2a	no change with or without drug	0.22	0.67	inactive
36	Gdf7	high cell count without drug only	-0.67	2.36	inactive
37	Hes1	no change with or without drug	0.9	0.17	inactive
38	Sms	no change with or without drug	-0.22	-0.67	inactive
39	Rhobtb2	no change with or without drug	-0.22	-0.84	inactive
40	Pcmtd1	no change with or without drug	-0.45	0.17	inactive
41	Hoxd3	no change with or without drug	1.01	0	inactive
42	Pmm1	no change with or without drug	0	0.17	inactive
43	Scg5	no change with or without drug	-0.22	-1.01	inactive
44	Pcx	no change with or without drug	0	-0.17	inactive
45	Tas2r121	no change with or without drug	-0.45	0.51	inactive
46	Pdha1	no change with or without drug	-0.56	-0.51	inactive
47	Stab2	no change with or without drug	1.46	0.51	inactive
48	Ankrd27	no change with or without drug	-0.45	0.17	inactive
49	Ndufb2	no change with or without drug	0.67	-1.85	inactive
50	Bace1	no change with or without drug	-0.22	1.18	inactive
